Reference: PMC10193013, “Nonstructural N- and C-tails of Dbp2 confer the protein full helicase activities” (The Journal of Biological Chemistry, 2023)
For some assays here: No signal at the amounts used counts as a negative. For some assays here: At least one verdict was read from the data and is not stated in words by the source. For some assays here: For at least one entry, the source does not settle the construct or the ends of the probe.

Chains of the proteins cited; added tags and fusions are not shown. Residues count along the entry.
UniProt P24783, 1-496: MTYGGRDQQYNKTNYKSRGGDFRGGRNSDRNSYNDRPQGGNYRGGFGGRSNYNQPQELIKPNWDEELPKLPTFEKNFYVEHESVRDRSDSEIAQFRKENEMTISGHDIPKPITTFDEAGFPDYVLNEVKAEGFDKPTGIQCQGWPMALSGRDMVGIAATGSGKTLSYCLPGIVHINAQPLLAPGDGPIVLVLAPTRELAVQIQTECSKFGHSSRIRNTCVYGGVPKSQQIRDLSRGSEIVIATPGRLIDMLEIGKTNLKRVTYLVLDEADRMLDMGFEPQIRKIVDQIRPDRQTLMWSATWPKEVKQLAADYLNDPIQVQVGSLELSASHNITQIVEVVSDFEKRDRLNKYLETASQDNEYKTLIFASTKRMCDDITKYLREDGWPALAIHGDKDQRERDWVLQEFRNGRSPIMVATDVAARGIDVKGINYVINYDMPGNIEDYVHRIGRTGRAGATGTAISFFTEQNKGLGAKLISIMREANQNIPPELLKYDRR
UniProt P24783, 53-546: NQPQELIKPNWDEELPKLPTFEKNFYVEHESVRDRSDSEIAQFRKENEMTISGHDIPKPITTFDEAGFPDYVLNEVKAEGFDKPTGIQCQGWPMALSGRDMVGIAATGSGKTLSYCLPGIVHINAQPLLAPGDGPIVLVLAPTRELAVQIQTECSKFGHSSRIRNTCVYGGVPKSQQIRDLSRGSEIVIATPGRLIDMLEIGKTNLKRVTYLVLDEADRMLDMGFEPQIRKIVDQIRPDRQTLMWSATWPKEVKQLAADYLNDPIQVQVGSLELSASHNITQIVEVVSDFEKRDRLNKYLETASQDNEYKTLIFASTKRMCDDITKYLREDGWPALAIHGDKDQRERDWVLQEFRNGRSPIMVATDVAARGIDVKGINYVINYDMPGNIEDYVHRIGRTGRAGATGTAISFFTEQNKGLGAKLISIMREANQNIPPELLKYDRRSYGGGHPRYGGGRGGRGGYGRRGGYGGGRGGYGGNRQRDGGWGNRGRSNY
UniProt P24783, whole entry F73A: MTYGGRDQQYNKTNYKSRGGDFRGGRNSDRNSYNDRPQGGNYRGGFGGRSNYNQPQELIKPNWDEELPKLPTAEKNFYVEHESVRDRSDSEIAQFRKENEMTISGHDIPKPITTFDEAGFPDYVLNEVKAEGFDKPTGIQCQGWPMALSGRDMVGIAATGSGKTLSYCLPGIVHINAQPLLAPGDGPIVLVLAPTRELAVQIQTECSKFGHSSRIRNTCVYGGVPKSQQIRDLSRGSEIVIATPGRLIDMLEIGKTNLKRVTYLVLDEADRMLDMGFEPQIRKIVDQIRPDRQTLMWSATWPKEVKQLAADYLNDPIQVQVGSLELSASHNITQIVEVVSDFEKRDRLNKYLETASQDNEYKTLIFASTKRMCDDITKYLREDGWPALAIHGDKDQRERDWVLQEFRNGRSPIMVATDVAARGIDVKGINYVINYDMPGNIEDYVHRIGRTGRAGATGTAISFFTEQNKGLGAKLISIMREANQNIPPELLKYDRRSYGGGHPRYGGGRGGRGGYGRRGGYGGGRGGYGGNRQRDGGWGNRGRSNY
UniProt P24783, whole entry E80A/H81A: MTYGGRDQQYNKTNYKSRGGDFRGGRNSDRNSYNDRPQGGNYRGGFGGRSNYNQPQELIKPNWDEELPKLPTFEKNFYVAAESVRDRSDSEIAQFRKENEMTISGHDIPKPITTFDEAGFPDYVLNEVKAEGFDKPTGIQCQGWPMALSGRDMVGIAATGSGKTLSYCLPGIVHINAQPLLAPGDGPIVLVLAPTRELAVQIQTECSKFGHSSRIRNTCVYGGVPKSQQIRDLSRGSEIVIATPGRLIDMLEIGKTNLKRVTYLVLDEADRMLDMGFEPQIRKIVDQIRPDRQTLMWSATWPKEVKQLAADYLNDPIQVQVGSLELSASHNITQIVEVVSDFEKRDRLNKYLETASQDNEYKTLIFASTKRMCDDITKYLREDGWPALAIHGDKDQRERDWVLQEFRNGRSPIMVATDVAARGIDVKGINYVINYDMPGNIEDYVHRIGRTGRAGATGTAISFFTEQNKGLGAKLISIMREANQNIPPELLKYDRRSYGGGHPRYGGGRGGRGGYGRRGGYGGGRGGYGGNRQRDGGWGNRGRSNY
UniProt P24783, whole entry F77A/Y78A: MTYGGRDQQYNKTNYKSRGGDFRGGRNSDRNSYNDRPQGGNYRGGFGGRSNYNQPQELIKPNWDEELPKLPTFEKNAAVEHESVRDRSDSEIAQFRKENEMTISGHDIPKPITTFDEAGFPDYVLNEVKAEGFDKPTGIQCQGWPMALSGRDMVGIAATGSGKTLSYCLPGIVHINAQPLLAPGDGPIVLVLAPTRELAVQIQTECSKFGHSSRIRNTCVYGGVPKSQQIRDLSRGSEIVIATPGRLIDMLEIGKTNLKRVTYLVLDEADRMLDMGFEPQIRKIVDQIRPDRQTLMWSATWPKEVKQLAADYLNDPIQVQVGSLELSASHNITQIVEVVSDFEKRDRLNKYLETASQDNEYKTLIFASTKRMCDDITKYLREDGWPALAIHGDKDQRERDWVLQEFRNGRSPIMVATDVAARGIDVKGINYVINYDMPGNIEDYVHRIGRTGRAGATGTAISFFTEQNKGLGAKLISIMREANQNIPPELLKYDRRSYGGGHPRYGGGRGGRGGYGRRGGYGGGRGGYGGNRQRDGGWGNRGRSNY
UniProt P24783, whole entry Y78E: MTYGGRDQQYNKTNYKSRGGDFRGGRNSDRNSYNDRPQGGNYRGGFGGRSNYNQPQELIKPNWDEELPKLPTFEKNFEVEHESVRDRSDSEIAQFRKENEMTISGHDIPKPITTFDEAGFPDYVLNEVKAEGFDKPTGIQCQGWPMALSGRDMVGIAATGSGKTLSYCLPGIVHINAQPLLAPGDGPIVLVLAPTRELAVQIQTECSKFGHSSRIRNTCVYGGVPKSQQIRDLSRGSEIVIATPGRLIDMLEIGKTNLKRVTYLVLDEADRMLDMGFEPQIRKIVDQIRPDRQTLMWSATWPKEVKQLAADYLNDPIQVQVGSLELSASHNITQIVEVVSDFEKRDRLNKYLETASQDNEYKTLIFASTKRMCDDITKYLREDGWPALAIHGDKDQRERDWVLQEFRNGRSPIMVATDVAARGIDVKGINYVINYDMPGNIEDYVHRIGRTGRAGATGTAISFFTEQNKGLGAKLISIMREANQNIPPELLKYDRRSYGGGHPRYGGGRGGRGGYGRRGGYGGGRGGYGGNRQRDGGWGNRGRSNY
UniProt P24783, whole entry Y78A: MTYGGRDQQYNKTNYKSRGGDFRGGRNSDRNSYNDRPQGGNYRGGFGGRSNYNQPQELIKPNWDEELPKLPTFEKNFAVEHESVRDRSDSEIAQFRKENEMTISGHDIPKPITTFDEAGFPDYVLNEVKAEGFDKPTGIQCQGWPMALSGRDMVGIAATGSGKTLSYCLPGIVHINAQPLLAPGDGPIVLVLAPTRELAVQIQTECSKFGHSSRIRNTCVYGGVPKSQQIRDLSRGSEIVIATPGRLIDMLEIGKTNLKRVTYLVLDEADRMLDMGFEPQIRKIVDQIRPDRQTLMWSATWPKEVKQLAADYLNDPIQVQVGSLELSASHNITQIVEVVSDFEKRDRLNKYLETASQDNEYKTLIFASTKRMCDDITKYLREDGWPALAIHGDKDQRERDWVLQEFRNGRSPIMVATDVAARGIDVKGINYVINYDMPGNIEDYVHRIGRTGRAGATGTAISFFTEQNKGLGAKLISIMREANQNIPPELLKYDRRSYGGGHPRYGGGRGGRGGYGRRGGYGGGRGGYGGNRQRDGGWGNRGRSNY

Legend:
[1] = molecular target: Dbp2 1-496 (Saccharomyces cerevisiae) (UniProt P24783); assay: EMSA; conditions: single band; EMSA: 25 mM Tris-HCl pH 7.5, 30 mM KCl, 2 mM MgCl2; recombinant protein; residues 1-496; protein details: His6-MBP removed by TEV; label: 3' FAM
[2] = molecular target: Dbp2 53-546 (Saccharomyces cerevisiae) (UniProt P24783); assay: EMSA; conditions: two bands; EMSA: 25 mM Tris-HCl pH 7.5, 30 mM KCl, 2 mM MgCl2; recombinant protein; residues 53-546; protein details: His6-MBP removed by TEV; label: 3' FAM
[3] = molecular target: Dbp2 F73A (Saccharomyces cerevisiae) (UniProt P24783); assay: fluorescence anisotropy; conditions: Anisotropy: 25 mM Tris-HCl pH 7.5, 20 mM NaCl/30 mM KCl, 2 mM MgCl2, 1 mM DTT, 5 nM labelled nucleic acid, 25 C, 5 min; recombinant protein; residues 1-546; DNA:RNA hybrid
[4] = molecular target: Dbp2 E80A/H81A (Saccharomyces cerevisiae) (UniProt P24783); assay: fluorescence anisotropy; conditions: Anisotropy: 25 mM Tris-HCl pH 7.5, 20 mM NaCl/30 mM KCl, 2 mM MgCl2, 1 mM DTT, 5 nM labelled nucleic acid, 25 C, 5 min; recombinant protein; residues 1-546; DNA:RNA hybrid
[5] = molecular target: Dbp2 WT (Saccharomyces cerevisiae) (UniProt P24783); assay: fluorescence anisotropy; conditions: Anisotropy: 25 mM Tris-HCl pH 7.5, 20 mM NaCl/30 mM KCl, 2 mM MgCl2, 1 mM DTT, 5 nM labelled nucleic acid, 25 C, 5 min; recombinant protein; residues 1-546; protein details: His6-MBP removed by TEV; DNA:RNA hybrid
[6] = molecular target: Dbp2 F77A/Y78A (Saccharomyces cerevisiae) (UniProt P24783); assay: fluorescence anisotropy; conditions: Anisotropy: 25 mM Tris-HCl pH 7.5, 20 mM NaCl/30 mM KCl, 2 mM MgCl2, 1 mM DTT, 5 nM labelled nucleic acid, 25 C, 5 min; recombinant protein; residues 1-546; DNA:RNA hybrid
[7] = molecular target: Dbp2 Y78E (Saccharomyces cerevisiae) (UniProt P24783); assay: fluorescence anisotropy; conditions: Anisotropy: 25 mM Tris-HCl pH 7.5, 20 mM NaCl/30 mM KCl, 2 mM MgCl2, 1 mM DTT, 5 nM labelled nucleic acid, 25 C, 5 min; recombinant protein; residues 1-546; DNA:RNA hybrid
[8] = molecular target: Dbp2 Y78A (Saccharomyces cerevisiae) (UniProt P24783); assay: fluorescence anisotropy; conditions: Anisotropy: 25 mM Tris-HCl pH 7.5, 20 mM NaCl/30 mM KCl, 2 mM MgCl2, 1 mM DTT, 5 nM labelled nucleic acid, 25 C, 5 min; recombinant protein; residues 1-546; DNA:RNA hybrid

Sequence | binding result [1] | binding result [2] | binding result [3] | Kd [4] [nM] | Kd [5] [nM] | binding result [6] | Kd [7] [nM] | binding result [8]
GGGUUAGGGUUAGGGUUAGGG [R-G4Tel] | binds | binds |  |  |  |  |  | 
UUUUUUUUUUCUCUGCUCGACG [R-S22] | binds | binds |  |  |  |  |  | 
CGTCGAGCAGAG / UUUUUUUUUUCUCUGCUCGACG [R/D-5'Oh] |  |  | no binding | 116 | 72.3 | no binding | 281 | no binding
UUUUUUUUUUUUGGGUUAGGGUUAGGGUUAGGG [3'R-G4Tel] | binds | binds |  |  |  |  |  | 
GGGUUAGGGUUAGGGUUAGGGUUUUUUUUUUUU [5'R-G4Tel] | binds | binds |  |  |  |  |  | 
